≈ marks a conversion by molar mass, not a printed value.
Tests used:
Test in all cases: Cytotoxic screening
Type in all cases: cell-based
[1] = system: human hepatocellular carcinoma (HEPG-2); conditions: HepG2, read-out: IC50 HepG-2
Description: (§1) Human colon carcinoma (HCT-116), human hepatocellular carcinoma (HEPG-2), adenocarcinomic human alveolar basal epithelial cell (A-549), and human breast adenocarcinoma (MCF-7) cell lines were obtained from the American Type Culture Collection (ATCC, Rockville, MD). The cells were grown on RPMI-1640 medium supplemented with 10 % inactivated fetal calf serum and 50 µg/ml gentamycin. The cells were maintained at 37 °C in a humidified atmosphere with 5 % CO2 and were subcultured two to three times a week. Potential cytotoxicity of the compounds was evaluated on tumor cells using the method of Gangadevi and Muthumary (2007[21]) (Klancnik et al., 2010[36]). The cells were grown as monolayers in growth RPMI-1640. The monolayers of 104 cells adhered at the bottom of the wells in a 96-well microtiter plate incubated for 24 h at 37 °C in a humidified incubator with 5 % CO2. The monolayers were then washed with sterile phosphate buffered saline (0.01 M pH 7.2) and simultaneously the cells were treated with 100 µL from different dilutions of tested sample in fresh maintenance medium and incubated at 37 °C. A control of untreated cells was made in the absence of tested sample. Positive controls containing doxorubicin were also tested as a reference drug for comparison. Six wells were used for each concentration of the test sample. Every 24 hours an observation under the inverted microscope was made. The number of the surviving cells was determined by staining the cells with crystal violet (Mosmann, 1983[42]; Gangadevi and Muthumary, 2007[21]) followed by cell lysing using 33 % glacial acetic acid and reading the absorbance at 590 nm using microplate reader (SunRise, TECAN, Inc, USA) after well mixing. The absorbance values from untreated cells were considered as 100 % proliferation. The number of viable cells was determined using microplate reader as previously mentioned before and the percentage of […] was calculated as [1-(ODt/ODc)] x 100 % where ODt is the mean optical density of wells treated with the tested sample and ODc is the mean optical density of untreated cells. The relation between surviving cells and drug concentration was plotted to get the survival curve of each tumor cell line after treatment with the specified compound. The 50 % inhibitory concentration (IC50), the concentration required to cause toxic effects in 50 % of intact cells, was estimated from graphic plots.
(§2) The in vitro cytotoxic activity was performed by MTT assay (Mosmann, 1983[42]; Alley et al., 1988[6]) against three human carcinoma cell lines: Human colon carcinoma (HCT-116), human breast adenocarcinoma (MCF-7), and human hepatocellular carcinoma (HEPG-2).

[2] = system: Human colon carcinoma (HCT-116); conditions: HCT-116, read-out: IC50 HCT-116
Description: as §1, §2

[3] = system: human breast adenocarcinoma (MCF-7); conditions: MCF7, read-out: IC50 MCF-7
Description: as §1, §2

COc1cc2c(c(OC)c1OC)-c1ccc(OC)c(=O)cc1[C@@H](NC(C)=O)CC2 [Colchicine, reference compound]
IC50 [1]: 10.6 µg/mL (≈ 26.5 µM) | IC50 [2]: 42.8 µg/mL (≈ 107 µM) | IC50 [3]: 17.7 µg/mL (≈ 44.3 µM)

Cc1ccc(NC(=O)c2ccc(CN3CCN(C)CC3)cc2)cc1Nc1nccc(-c2cccnc2)n1 [Imatinib, reference compound]
IC50 [1]: 18.6 µg/mL (≈ 37.7 µM) | IC50 [3]: 24.6 µg/mL (≈ 49.8 µM)

From paper PMC5547389, “Structure-activity relationships and molecular docking studies of chromene and chromene based azo chromophores: A novel series of potent antimicrobial and anticancer agents” (EXCLI Journal, 2017)
